These are yes or no findings as the source states them, for the method shown. In cells and extracts the contact can be indirect. These calls come from enrichment with a bait or labelling near it, and not all partners need be listed.
B1: PARK7, Q99497 1-189 (protein)
chain: MASKRALVILAKGAEEMETVIPVDVMRRAGIKVTVAGLAGKDPVQCSRDVVICPDASLEDAKKEGPYDVVVLPGGNLGAQNLSESAAVKEILKEQENRKGLIAAICAGPTALLAHEIGFGSKVTTHPLAKDKMMNGGHYTYSENRVEKDGLILTSRGPGTSFEFALAIVEALNGKEVAAQVKAPLVLKD
modifications: here or on the partner: SiR-CA bound covalently to the Halo tag
B2: RIPK1, Q13546 1-671 (enzyme)
chain: MQPDMSLNVIKMKSSDFLESAELDSGGFGKVSLCFHRTQGLMIMKTVYKGPNCIEHNEALLEEAKMMNRLRHSRVVKLLGVIIEEGKYSLVMEYMEKGNLMHVLKAEMSTPLSVKGRIILEIIEGMCYLHGKGVIHKDLKPENILVDNDFHIKIADLGLASFKMWSKLNNEEHNELREVDGTAKKNGGTLYYMAPEHLNDVNAKPTEKSDVYSFAVVLWAIFANKEPYENAICEQQLIMCIKSGNRPDVDDITEYCPREIISLMKLCWEANPEARPTFPGIEEKFRPFYLSQLEESVEEDVKSLKKEYSNENAVVKRMQSLQLDCVAVPSSRSNSATEQPGSLHSSQGLGMGPVEESWFAPSLEHPQEENEPSLQSKLQDEANYHLYGSRMDRQTKQQPRQNVAYNREEERRRRVSHDPFAQQRPYENFQNTEGKGTAYSSAASHGNAVHQPSGLTSQPQVLYQNNGLYSSHGFGTRPLDPGTAGPRVWYRPIPSHMPSLHNIPVPETNYLGNTPTMPFSSLPPTDESIKYTIYNSTGIQIGAYNYMEIGGTSSSLLDSTNTNFKEEPAAKYQAIFDNTTSLTDKHLDPIRENLGKHWKNCARKLGFTQSQIDEIDHDYERDGLKEKVYQMLQKWVMREGIKGATVGKLAQALHQCSRIDLLSSLIYVSQN
modifications: here or on the partner: SiR-CA bound covalently to the Halo tag
B3: TBC1D15 (protein, UniProt Q8TC07 1-691)
chain: MAAAGVVSGKIIYEQEGVYIHSSCGKTNDQDGLISGILRVLEKDAEVIVDWRPLDDALDSSSILYARKDSSSVVEWTQAPKERGHRGSEHLNSYEAEWDMVNTVSFKRKPHTNGDAPSHRNGKSKWSFLFSLTDLKSIKQNKEGMGWSYLVFCLKDDVVLPALHFHQGDSKLLIESLEKYVVLCESPQDKRTLLVNCQNKSLSQSFENLLDEPAYGLIQAGLLDRRKLLWAIHHWKKIKKDPYTATMIGFSKVTNYIFDSLRGSDPSTHQRPPSEMADFLSDAIPGLKINQQEEPGFEVITRIDLGERPVVQRREPVSLEEWTKNIDSEGRILNVDNMKQMIFRGGLSHALRKQAWKFLLGYFPWDSTKEERTQLQKQKTDEYFRMKLQWKSISQEQEKRNSRLRDYRSLIEKDVNRTDRTNKFYEGQDNPGLILLHDILMTYCMYDFDLGYVQGMSDLLSPLLYVMENEVDAFWCFASYMDQMHQNFEEQMQGMKTQLIQLSTLLRLLDSGFCSYLESQDSGYLYFCFRWLLIRFKREFSFLDILRLWEVMWTELPCTNFHLLLCCAILESEKQQIMEKHYGFNEILKHINELSMKIDVEDILCKAEAISLQMVKCKELPQAVCEILGLQGSEVTTPDSDVGEDENVVMTPCPTSAFQSNALPTLSASGARNDSPTQIPVSSDVCRLTPA
B4: ECI1 (enzyme, UniProt P42126 42-302)
chain: FGSQRVLVEPDAGAGVAVMKFKNPPVNSLSLEFLTELVISLEKLENDKSFRGVILTSDRPGVFSAGLDLTEMCGRSPAHYAGYWKAVQELWLRLYQSNLVLVSAINGACPAGGCLVALTCDYRILADNPRYCIGLNETQLGIIAPFWLKDTLENTIGHRAAERALQLGLLFPPAEALQVGIVDQVVPEEQVQSTALSAIAQWMAIPDHARQLTKAMMRKATASRLVTQRDADVQNFVSFISKDSIQKSLQMYLERLKEEKG
B5: BDH1 (enzyme, UniProt Q02338 47-343)
chain: ASAAEPVGSKAVLVTGCDSGFGFSLAKHLHSKGFLVFAGCLMKDKGHDGVKELDSLNSDRLRTVQLNVCSSEEVEKVVEIVRSSLKDPEKGMWGLVNNAGISTFGEVEFTSLETYKQVAEVNLWGTVRMTKSFLPLIRRAKGRVVNISSMLGRMANPARSPYCITKFGVEAFSDCLRYEMYPLGVKVSVVEPGNFIAATSLYSPESIQAIAKKMWEELPEVVRKDYGKKYFDEKIAKMETYCSSGSTDTSPVIDAVTHALTATTPYTRYHPMDYYWWLRMQIMTHLPGAISDMIYIR

Chains of the proteins cited; added tags and fusions are not shown. Residues count along the entry.
UniProt O60260: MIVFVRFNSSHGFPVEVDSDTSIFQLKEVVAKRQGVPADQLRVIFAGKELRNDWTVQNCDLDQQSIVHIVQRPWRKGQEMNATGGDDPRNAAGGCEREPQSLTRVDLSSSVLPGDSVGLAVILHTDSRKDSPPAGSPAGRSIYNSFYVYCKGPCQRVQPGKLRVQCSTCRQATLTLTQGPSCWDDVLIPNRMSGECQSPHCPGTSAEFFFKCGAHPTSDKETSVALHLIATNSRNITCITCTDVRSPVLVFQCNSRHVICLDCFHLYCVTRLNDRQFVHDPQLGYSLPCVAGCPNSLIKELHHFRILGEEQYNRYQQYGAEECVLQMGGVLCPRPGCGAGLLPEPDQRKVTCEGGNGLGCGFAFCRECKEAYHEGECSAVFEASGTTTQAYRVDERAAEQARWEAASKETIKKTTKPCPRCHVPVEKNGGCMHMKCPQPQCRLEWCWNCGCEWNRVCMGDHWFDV
UniProt P54725: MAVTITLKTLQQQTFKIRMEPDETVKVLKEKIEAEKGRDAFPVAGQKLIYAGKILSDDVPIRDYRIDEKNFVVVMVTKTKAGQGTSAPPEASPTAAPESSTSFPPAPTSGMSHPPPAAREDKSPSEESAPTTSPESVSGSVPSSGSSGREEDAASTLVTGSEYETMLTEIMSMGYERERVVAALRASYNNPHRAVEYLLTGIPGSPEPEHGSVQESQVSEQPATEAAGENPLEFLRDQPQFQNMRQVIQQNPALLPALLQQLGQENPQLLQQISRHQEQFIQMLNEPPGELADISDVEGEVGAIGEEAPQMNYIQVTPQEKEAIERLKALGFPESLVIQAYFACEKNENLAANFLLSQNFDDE
UniProt Q9NWU1, residues 28-459: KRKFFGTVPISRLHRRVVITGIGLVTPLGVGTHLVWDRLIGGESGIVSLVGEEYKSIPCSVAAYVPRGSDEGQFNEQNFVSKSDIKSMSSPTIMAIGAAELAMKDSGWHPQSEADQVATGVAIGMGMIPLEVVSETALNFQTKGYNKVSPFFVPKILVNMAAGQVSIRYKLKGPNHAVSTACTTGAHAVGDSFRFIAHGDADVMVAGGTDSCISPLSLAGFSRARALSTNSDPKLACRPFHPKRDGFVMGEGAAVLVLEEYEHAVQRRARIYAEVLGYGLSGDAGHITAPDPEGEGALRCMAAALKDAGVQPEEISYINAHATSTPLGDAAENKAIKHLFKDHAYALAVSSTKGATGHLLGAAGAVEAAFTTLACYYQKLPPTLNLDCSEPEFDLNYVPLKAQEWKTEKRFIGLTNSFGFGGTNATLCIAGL
UniProt P14618: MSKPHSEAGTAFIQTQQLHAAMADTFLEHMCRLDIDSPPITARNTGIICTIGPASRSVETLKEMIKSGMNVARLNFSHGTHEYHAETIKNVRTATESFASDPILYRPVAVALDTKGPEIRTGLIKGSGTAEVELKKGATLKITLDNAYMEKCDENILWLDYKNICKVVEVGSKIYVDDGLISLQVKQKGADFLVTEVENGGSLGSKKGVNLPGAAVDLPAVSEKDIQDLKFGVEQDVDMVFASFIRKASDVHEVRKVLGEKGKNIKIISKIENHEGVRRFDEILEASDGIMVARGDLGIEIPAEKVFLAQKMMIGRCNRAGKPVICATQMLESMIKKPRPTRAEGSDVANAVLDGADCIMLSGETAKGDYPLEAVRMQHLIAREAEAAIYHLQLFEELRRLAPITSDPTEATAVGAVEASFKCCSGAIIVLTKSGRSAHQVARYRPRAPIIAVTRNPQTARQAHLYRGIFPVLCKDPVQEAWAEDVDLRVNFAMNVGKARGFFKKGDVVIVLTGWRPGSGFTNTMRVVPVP

The molecules below were run against Flag-Halo-Parkin, O60260 (assay: proximity labelling). Conditions: remark: other sources report otherwise.

binding, binds:
B1
B2

These molecules were tested against Flag-Halo-Parkin (UniProt O60260) (assay: proximity labelling). Conditions: not given.

binding, binds:
VCP (from UniProt P55072 1-806) (enzyme)
RAD23A (from UniProt P54725 1-363)
OXSM (from UniProt Q9NWU1 28-459) (enzyme)
PKM (from UniProt P14618 1-531) (enzyme)
ATP5F1B (from UniProt P06576 48-529) (enzyme)
B3
B4
B5

— article doi:10.1101/2024.12.19.627432
